This passage reports binding results from publication PMC3527332.

Protein sequences, listed by entry. Tags and fused reporters are not part of them.
UniProt Q9M2Z2: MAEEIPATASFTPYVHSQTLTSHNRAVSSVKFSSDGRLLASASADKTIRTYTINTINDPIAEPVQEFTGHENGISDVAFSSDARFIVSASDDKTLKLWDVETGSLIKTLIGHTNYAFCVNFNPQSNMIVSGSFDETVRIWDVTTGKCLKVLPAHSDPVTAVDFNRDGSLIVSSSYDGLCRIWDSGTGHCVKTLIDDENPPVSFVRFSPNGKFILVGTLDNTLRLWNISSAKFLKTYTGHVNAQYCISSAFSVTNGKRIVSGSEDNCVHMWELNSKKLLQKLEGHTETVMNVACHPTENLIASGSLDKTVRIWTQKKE

Results are given in words; binding and its absence hold for the method and conditions named. For part of these data: In cells and extracts the contact can be indirect. Some results given as binding are weak or reduced against the parent protein; the word gives no strength. For part of these data: Tags and fused reporters may be left off the sequences shown.

Assay [1] addresses T1, AtASH2, DNA-binding-domain fusion from pGBKT-AtASH2 (Arabidopsis) (UniProt Q9C8J7).
T1 sequence: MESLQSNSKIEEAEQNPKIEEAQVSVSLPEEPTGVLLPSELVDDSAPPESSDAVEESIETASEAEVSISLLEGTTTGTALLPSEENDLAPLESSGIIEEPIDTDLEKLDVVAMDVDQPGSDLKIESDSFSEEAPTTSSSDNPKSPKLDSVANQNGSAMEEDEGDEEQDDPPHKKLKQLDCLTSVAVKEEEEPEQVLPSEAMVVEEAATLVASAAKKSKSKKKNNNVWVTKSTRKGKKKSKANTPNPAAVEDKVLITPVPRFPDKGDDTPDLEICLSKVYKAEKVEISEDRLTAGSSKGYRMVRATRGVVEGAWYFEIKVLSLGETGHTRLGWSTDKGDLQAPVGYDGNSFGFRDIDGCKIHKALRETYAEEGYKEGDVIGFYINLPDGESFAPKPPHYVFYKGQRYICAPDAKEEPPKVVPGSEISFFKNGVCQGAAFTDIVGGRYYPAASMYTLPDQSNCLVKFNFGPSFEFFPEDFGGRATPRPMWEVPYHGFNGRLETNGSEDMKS
Kind of assay: two-hybrid; yeast strain AH190; baits fused to the DNA binding domain (pGBKT), preys fused to the activation domain (pGADT7); growth on SD medium lacking Trp, Leu, His and Ade.

Assay [2] addresses AtWDR5a, DNA-binding-domain fusion from pGBKT-AtWDR5 (Arabidopsis) (UniProt Q9M2Z2). Described as above.
For assay [3], the target named is TAP-tagged AtWDR5a fusion protein (Arabidopsis) (UniProt Q9M2Z2). Kind of assay: pull-down; TAP-tagged AtWDR5a as bait, total cellular protein extracts; Coomassie-stained gel, western blot with antiATX1 antibody, bands identified by MS.

B1: ATX1 (ARABIDOPSIS TRITHORAX1), activation-domain fusion from pGADT7-ATX1 (protein, UniProt Q9C5X4 1-1062)
chain: MACFSNETQIEIDVHDLVEAPIRYDSIESIYSIPSSALCCVNAVGSHSLMSKKVKAQKLPMIEQFEIEGSGVSASDDCCRSDDYKLRIQRPEIVRVYYRRRKRPLRECLLDQAVAVKTESVELDEIDCFEEKKRRKIGNCELVKSGMESIGLRRCKENNAFSGNKQNGSSRRKGSSSKNQDKATLASRSAKKWVRLSYDGVDPTSFIGLQCKVFWPLDALWYEGSIVGYSAERKRYTVKYRDGCDEDIVFDREMIKFLVSREEMELLHLKFCTSNVTVDGRDYDEMVVLAATLDECQDFEPGDIVWAKLAGHAMWPAVIVDESIIGERKGLNNKVSGGGSLLVQFFGTHDFARIKVKQAISFIKGLLSPSHLKCKQPRFEEGMQEAKMYLKAHRLPERMSQLQKGADSVDSDMANSTEEGNSGGDLLNDGEVWLRPTEHVDFRHIIGDLLIINLGKVVTDSQFFKDENHIWPEGYTAMRKFTSLTDHSASALYKMEVLRDAETKTHPLFIVTADSGEQFKGPTPSACWNKIYNRIKKVQNSDSPNILGEELNGSGTDMFGLSNPEVIKLVQDLSKSRPSSHVSMCKNSLGRHQNQPTGYRPVRVDWKDLDKCNVCHMDEEYENNLFLQCDKCRMMVHAKCYGELEPCDGALWLCNLCRPGAPDMPPRCCLCPVVGGAMKPTTDGRWAHLACAIWIPETCLSDVKKMEPIDGVNKVSKDRWKLMCTICGVSYGACIQCSNNSCRVAYHPLCARAAGLCVELENDMSVEGEEADQCIRMLSFCKRHRQTSTACLGSEDRIKSATHKTSEYLPPPNPSGCARTEPYNCFGRRGRKEPEALAAASSKRLFVENQPYVIGGYSRLEFSTYKSIHGSKVSQMNTPSNILSMAEKYRYMRETYRKRLAFGKSGIHGFGIFAKLPHRAGDMMIEYTGELVRPSIADKREQLIYNSMVGAGTYMFRIDDERVIDATRTGSIAHLINHSCVPNCYSRVITVNGDEHIIIFAKRHIPKWEELTYDYRFFSIGERLSCSCGFPGCRGVVNDTEAEEQHAKICVPRCDLIDWTAE
Regarding B1, the binding result in assay [1] is recorded as “no binding”; in assay [2], “binds”.

B2: ATX1 (120 kD) from total cellular protein extracts (protein, UniProt Q9C5X4 1-1062)
chain: MACFSNETQIEIDVHDLVEAPIRYDSIESIYSIPSSALCCVNAVGSHSLMSKKVKAQKLPMIEQFEIEGSGVSASDDCCRSDDYKLRIQRPEIVRVYYRRRKRPLRECLLDQAVAVKTESVELDEIDCFEEKKRRKIGNCELVKSGMESIGLRRCKENNAFSGNKQNGSSRRKGSSSKNQDKATLASRSAKKWVRLSYDGVDPTSFIGLQCKVFWPLDALWYEGSIVGYSAERKRYTVKYRDGCDEDIVFDREMIKFLVSREEMELLHLKFCTSNVTVDGRDYDEMVVLAATLDECQDFEPGDIVWAKLAGHAMWPAVIVDESIIGERKGLNNKVSGGGSLLVQFFGTHDFARIKVKQAISFIKGLLSPSHLKCKQPRFEEGMQEAKMYLKAHRLPERMSQLQKGADSVDSDMANSTEEGNSGGDLLNDGEVWLRPTEHVDFRHIIGDLLIINLGKVVTDSQFFKDENHIWPEGYTAMRKFTSLTDHSASALYKMEVLRDAETKTHPLFIVTADSGEQFKGPTPSACWNKIYNRIKKVQNSDSPNILGEELNGSGTDMFGLSNPEVIKLVQDLSKSRPSSHVSMCKNSLGRHQNQPTGYRPVRVDWKDLDKCNVCHMDEEYENNLFLQCDKCRMMVHAKCYGELEPCDGALWLCNLCRPGAPDMPPRCCLCPVVGGAMKPTTDGRWAHLACAIWIPETCLSDVKKMEPIDGVNKVSKDRWKLMCTICGVSYGACIQCSNNSCRVAYHPLCARAAGLCVELENDMSVEGEEADQCIRMLSFCKRHRQTSTACLGSEDRIKSATHKTSEYLPPPNPSGCARTEPYNCFGRRGRKEPEALAAASSKRLFVENQPYVIGGYSRLEFSTYKSIHGSKVSQMNTPSNILSMAEKYRYMRETYRKRLAFGKSGIHGFGIFAKLPHRAGDMMIEYTGELVRPSIADKREQLIYNSMVGAGTYMFRIDDERVIDATRTGSIAHLINHSCVPNCYSRVITVNGDEHIIIFAKRHIPKWEELTYDYRFFSIGERLSCSCGFPGCRGVVNDTEAEEQHAKICVPRCDLIDWTAE
With B2, the binding entry in assay [3] is listed as “binds”.
